B1: P01786 (protein, UniProt P01786 1-117, looked up)
chain: EVKLVESGGGLVQPGGSLRLSCATSGFTFTDYYMSWVRQPPGKALEWLGFIRNKABGYTTEYSAVKGRFTISRBBSZGILYLQMNTLRAQDSATYYCARDITEFAYWGZGTLVTVSS
modifications: full-length
B2: P20918 (protein, UniProt P20918 1-812, looked up)
chain: MDHKEVILLFLLLLKPGQGDSLDGYISTQGASLFSLTKKQLAAGGVSDCLAKCEGETDFVCRSFQYHSKEQQCVIMAENSKTSSIIRMRDVILFEKRVYLSECKTGIGNGYRGTMSRTKSGVACQKWGATFPHVPNYSPSTHPNEGLEENYCRNPDNDEQGPWCYTTDPDKRYDYCNIPECEEECMYCSGEKYEGKISKTMSGLDCQAWDSQSPHAHGYIPAKFPSKNLKMNYCRNPDGEPRPWCFTTDPTKRWEYCDIPRCTTPPPPPSPTYQCLKGRGENYRGTVSVTVSGKTCQRWSEQTPHRHNRTPENFPCKNLEENYCRNPDGETAPWCYTTDSQLRWEYCEIPSCESSASPDQSDSSVPPEEQTPVVQECYQSDGQSYRGTSSTTITGKKCQSWAAMFPHRHSKTPENFPDAGLEMNYCRNPDGDKGPWCYTTDPSVRWEYCNLKRCSETGGSVVELPTVSQEPSGPSDSETDCMYGNGKDYRGKTAVTAAGTPCQGWAAQEPHRHSIFTPQTNPRAGLEKNYCRNPDGDVNGPWCYTTNPRKLYDYCDIPLCASASSFECGKPQVEPKKCPGRVVGGCVANPHSWPWQISLRTRFTGQHFCGGTLIAPEWVLTAAHCLEKSSRPEFYKVILGAHEEYIRGLDVQEISVAKLILEPNNRDIALLKLSRPATITDKVIPACLPSPNYMVADRTICYITGWGETQGTFGAGRLKEAQLPVIENKVCNRVEYLNNRVKSTELCAGQLAGGVDSCQGDSGGPLVCFEKDKYILQGVTSWGLGCARPNKPGVYVRVSRFVDWIEREMRNN
modifications: full-length
B3: P12023 (protein, UniProt P12023 1-770, looked up)
chain: MLPSLALLLLAAWTVRALEVPTDGNAGLLAEPQIAMFCGKLNMHMNVQNGKWESDPSGTKTCIGTKEGILQYCQEVYPELQITNVVEANQPVTIQNWCKRGRKQCKTHTHIVIPYRCLVGEFVSDALLVPDKCKFLHQERMDVCETHLHWHTVAKETCSEKSTNLHDYGMLLPCGIDKFRGVEFVCCPLAEESDSVDSADAEEDDSDVWWGGADTDYADGGEDKVVEVAEEEEVADVEEEEADDDEDVEDGDEVEEEAEEPYEEATERTTSTATTTTTTTESVEEVVREVCSEQAETGPCRAMISRWYFDVTEGKCVPFFYGGCGGNRNNFDTEEYCMAVCGSVSTQSLLKTTSEPLPQDPDKLPTTAASTPDAVDKYLETPGDENEHAHFQKAKERLEAKHRERMSQVMREWEEAERQAKNLPKADKKAVIQHFQEKVESLEQEAANERQQLVETHMARVEAMLNDRRRLALENYITALQAVPPRPHHVFNMLKKYVRAEQKDRQHTLKHFEHVRMVDPKKAAQIRSQVMTHLRVIYERMNQSLSLLYNVPAVAEEIQDEVDELLQKEQNYSDDVLANMISEPRISYGNDALMPSLTETKTTVELLPVNGEFSLDDLQPWHPFGVDSVPANTENEVEPVDARPAADRGLTTRPGSGLTNIKTEEISEVKMDAEFGHDSGFEVRHQKLVFFAEDVGSNKGAIIGLMVGGVVIATVIVITLVMLKKKQYTSIHHGVVEVDAAVTPEERHLSKMQQNGYENPTYKFFEQMQN
modifications: full-length
B4: Q8C196 (protein, UniProt Q8C196 1-1500, looked up)
chain: MTRILTACKVVKTLKSGFGFANVTTKRQWDFSRPGIRLLSVKAKTAHIVLEDGTKMKGYSFGHPSSVAGEVVFNTGLGGYPEALTDPAYKGQILTMANPIIGNGGAPDTTARDELGLNKYMESDGIKVAGLLVLNYSNDYNHWLATKSLGQWLQEEKVPAIYGVDTRMLTKIIRDKGTMLGKIEFEGQSVDFVDPNKQNLIAEVSTKDVKVFGKGNPTKVVAVDCGIKNNVIRLLVKRGAEVHLVPWNHDFTQMEYDGLLIAGGPGNPALAQPLIQNVKKILESDRKEPLFGISTGNIITGLAAGAKSYKMSMANRGQNQPVLNITNRQAFITAQNHGYALDNTLPAGWKPLFVNVNDQTNEGIMHESKPFFAVQFHPEVSPGPTDTEYLFDSFFSLIKKGKGTTITSVLPKPALVASRVEVSKVLILGSGGLSIGQAGEFDYSGSQAVKAMKEENVKTVLMNPNIASVQTNEVGLKQADAVYFLPITPQFVTEVIKAERPDGLILGMGGQTALNCGVELFKRGVLKEYGVKVLGTSVESIMATEDRQLFSDKLNEINEKIAPSFAVESMEDALKAADTIGYPVMIRSAYALGGLGSGICPNKETLIDLGTKAFAMTNQILVERSVTGWKEIEYEVVRDADDNCVTVCNMENVDAMGVHTGDSVVVAPAQTLSNAEFQMLRRTSVNVVRHLGIVGECNIQFALHPTSMEYCIIEVNARLSRSSALASKATGYPLAFIAAKIALGIPLPEIKNVVSGKTSACFEPSLDYMVTKIPRWDLDRFHGTSSRIGSSMKSVGEVMAIGRTFEESFQKALRMCHPSVDGFTPRLPMNKEWPANLDLKKELSEPSSTRIYAIAKALENNMSLDEIVRLTSIDKWFLYKMRDILNMDKTLKGLNSDSVTEETLRKAKEIGFSDKQISKCLGLTEAQTRELRLKKNIHPWVKQIDTLAAEYPSVTNYLYVTYNGQEHDIKFDEHGIMVLGCGPYHIGSSVEFDWCAVSSIRTLRQLGKKTVVVNCNPETVSTDFDECDKLYFEELSLERILDIYHQEACNGCIISVGGQIPNNLAVPLYKNGVKIMGTSPLQIDRAEDRSIFSAVLDELKVAQAPWKAVNTLNEALEFANSVGYPCLLRPSYVLSGSAMNVVFSEDEMKRFLEEATRVSQEHPVVLTKFVEGAREVEMDAVGKEGRVISHAISEHVEDAGVHSGDATLMLPTQTISQGAIEKVKDATRKIAKAFAISGPFNVQFLVKGNDVLVIECNLRASRSFPFVSKTLGVDFIDVATKVMIGESIDEKRLPTLEQPIIPSDYVAIKAPMFSWPRLRDADPILRCEMASTGEVACFGEGIHTAFLKAMLSTGFKIPQKGILIGIQQSFRPRFLGVAEQLHNEGFKLFATEATSDWLNANNVPATPVAWPSQEGQNPSLSSIRKLIRDGSIDLVINLPNNNTKFVHDNYVIRRTAVDSGIALLTNFQVTKLFAEAVQKSRTVDSKSLFHYRQYSAGKAA
modifications: full-length
B5: P80313 (protein, UniProt P80313 1-544, looked up)
chain: MMPTPVILLKEGTDSSQGIPQLVSNISACQVIAEAVRTTLGPRGMDKLIVDGRGKATISNDGATILKLLDVVHPAAKTLVDIAKSQDAEVGDGTTSVTLLAAEFLKQVKPYVEEGLHPQIIIRAFRTATQLAVNKIKEIAVTVKKQDKVEQRKMLEKCAMTALSSKLISQQKVFFAKMVVDAVMMLDELLQLKMIGIKKVQGGALEESQLVAGVAFKKTFSYAGFEMQPKKYKNPKIALLNVELELKAEKDNAEIRVHTVEDYQAIVDAEWNILYDKLEKIHQSGAKVILSKLPIGDVATQYFADRDMFCAGRVPEEDLKRTMMACGGSIQTSVNALVPDVLGHCQVFEETQIGGERYNFFTGCPKAKTCTIILRGGAEQFMEETERSLHDAIMIVRRAIKNDSVVAGGGAIEMELSKYLRDYSRTIPGKQQLLIGAYAKALEIIPRQLCDNAGFDATNILNKLRARHAQGGMWYGVDINNENIADNFQAFVWEPAMVRINALTAASEAACLIVSVDETIKNPRSTVDPPAPSAGRGRGQARFH
modifications: full-length

Test system: CA19-9 modified proteins
Assay: CA19-9 IP/MS (iTRAQ) of organoid conditioned media after Dox treatment
Design: species or system mouse
Conditions: CA19-9 IP/MS relative abundance; for 17 0H NS19 / 17 8H 5B1 / 17 8H NS19: A217 (genetic negative) organoid conditioned media; for 17 0H NS19 / 20 0H 5B1: 0H (before treatment); for 17 0H NS19 / 17 8H NS19: IP with NS19-9; for 17 0H NS19: reference channel = 1; for 17 8H 5B1 / 17 8H NS19: after 8 hours; for 17 8H 5B1 / 20 0H 5B1: IP with 5B1; for 20 0H 5B1: A220 (C;R^LSL;F) organoid conditioned media

Molecule | 17 0H NS19 | 17 8H 5B1 | 17 8H NS19 | 20 0H 5B1
B1 | 1 | 0.786 | 0.976 | 0.724
B2 | 1 | 0.903 | 0.973 | 0.756
B3 | 1 | 3.393 | 1.207 | 1.115
B4 | 1 | 3.227 | 0.633 | 2.679
B5 | 1 | 2.089 | 0.704 | 1.829

Source: patent publication US12378320B2, “Methods for treating pancreatitis” (Cold Spring Harbor Laboratory, priority 2018, dated 2025)
